Here are results for 1 substance from publication PMC10883948.

The chains behind the UniProt entries cited, without tags or fusion partners. Residues count along the entry.
UniProt P53762: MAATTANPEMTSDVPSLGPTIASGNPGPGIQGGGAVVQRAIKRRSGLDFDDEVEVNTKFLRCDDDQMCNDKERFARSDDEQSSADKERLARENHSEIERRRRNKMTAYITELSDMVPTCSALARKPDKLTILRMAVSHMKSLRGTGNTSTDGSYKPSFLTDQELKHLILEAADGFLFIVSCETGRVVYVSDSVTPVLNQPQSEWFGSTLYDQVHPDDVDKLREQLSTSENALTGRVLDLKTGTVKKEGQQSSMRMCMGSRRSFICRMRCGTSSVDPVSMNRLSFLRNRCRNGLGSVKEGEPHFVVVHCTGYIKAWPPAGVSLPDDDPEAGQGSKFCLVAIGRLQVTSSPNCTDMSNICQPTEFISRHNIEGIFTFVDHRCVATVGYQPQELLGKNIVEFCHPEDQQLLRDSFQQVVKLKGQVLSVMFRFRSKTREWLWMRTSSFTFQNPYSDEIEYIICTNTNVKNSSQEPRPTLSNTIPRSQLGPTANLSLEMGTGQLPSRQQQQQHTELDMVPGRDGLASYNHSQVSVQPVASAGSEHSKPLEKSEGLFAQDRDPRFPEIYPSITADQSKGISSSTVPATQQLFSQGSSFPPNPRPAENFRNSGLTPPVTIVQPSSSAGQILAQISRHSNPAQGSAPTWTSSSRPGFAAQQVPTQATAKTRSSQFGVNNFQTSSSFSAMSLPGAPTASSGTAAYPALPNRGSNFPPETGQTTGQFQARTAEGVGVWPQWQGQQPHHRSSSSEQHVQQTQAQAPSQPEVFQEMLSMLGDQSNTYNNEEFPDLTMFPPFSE
UniProt P30561, residues 10-848: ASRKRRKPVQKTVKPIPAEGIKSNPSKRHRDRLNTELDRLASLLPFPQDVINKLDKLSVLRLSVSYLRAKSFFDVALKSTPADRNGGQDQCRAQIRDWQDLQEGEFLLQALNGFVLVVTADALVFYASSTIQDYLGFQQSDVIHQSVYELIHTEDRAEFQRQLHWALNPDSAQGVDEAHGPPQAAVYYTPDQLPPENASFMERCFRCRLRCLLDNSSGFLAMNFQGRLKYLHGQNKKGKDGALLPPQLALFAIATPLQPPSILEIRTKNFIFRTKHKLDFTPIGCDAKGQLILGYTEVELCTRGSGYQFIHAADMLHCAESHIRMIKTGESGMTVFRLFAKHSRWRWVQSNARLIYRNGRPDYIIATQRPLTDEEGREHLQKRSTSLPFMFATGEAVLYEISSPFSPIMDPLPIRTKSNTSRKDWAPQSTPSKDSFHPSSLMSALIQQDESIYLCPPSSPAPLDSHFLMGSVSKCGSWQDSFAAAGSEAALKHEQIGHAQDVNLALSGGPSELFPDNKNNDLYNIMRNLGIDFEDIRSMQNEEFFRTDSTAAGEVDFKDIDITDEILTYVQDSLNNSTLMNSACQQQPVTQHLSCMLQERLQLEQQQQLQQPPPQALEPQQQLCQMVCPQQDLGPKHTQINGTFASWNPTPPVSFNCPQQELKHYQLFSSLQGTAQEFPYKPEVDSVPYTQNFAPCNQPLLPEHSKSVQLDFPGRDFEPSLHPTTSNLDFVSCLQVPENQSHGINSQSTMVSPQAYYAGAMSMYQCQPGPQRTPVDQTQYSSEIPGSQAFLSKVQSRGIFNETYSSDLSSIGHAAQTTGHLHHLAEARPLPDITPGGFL

The test concerns the target AHR nuclear translocator (mouse (endogenous in naive CD4+ T cells)) (UniProt P53762). Nature of the test: Western blot under non-reduced denaturing conditions; mouse naive CD4+ T cells under Th17-inducing conditions, with or without LA (con+LA group); AHR and ARNT detected.

No constants are given. Whether binding was seen depends on the method and setting. Some binding calls cover weakened binding; strength is not graded here.

“aryl hydrocarbon receptor (from UniProt P30561 10-848)”: the binding result is listed as “binds”.
